The supplement of paper PMC10338343
± gives the standard deviation. This is a selection; strong and weak results do not stand in their true shares. Many of these values have a large error. The list shows a part of the results.

Tests used:
[1] = test system: MILI (PIWIL2) piRISC loaded with L1MC piRNA (26 nt); assay: pre-steady-state target cleavage rate (min^-1); higher = faster piRNA-guided slicing of the target; settings: guide: L1MC piRNA 5'p-UAACUAAAUACUAUGCAAGCUGUAGG
Method in brief: (§1)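 The pre-steady-state cleavage rate was obtained by Cleave-'n-Seq with a burst-and-steady-state fit. A transcribed, DNA-blocked target RNA library (0.1 nM) was mixed with 1 nM active affinity-purified piRISC carrying one synthetic guide, with or without 500 nM GTSF1 partner protein, in HEPES–potassium acetate buffer at 33 °C for 0–8 or 0–960 min. Uncleaved targets were sequenced and normalised to depth and to weakly complementary targets, with three trials pooled and k3 capped at 0.0001 min^-1.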

[2] = test system: EfPiwi piRISC loaded with L1MC piRNA (26 nt); assay: pre-steady-state target cleavage rate (min^-1); guide: L1MC piRNA 5'p-UAACUAAAUACUAUGCAAGCUGUAGG; MIWI and MILI are mouse PIWI proteins and EfPiwi is from a freshwater sponge; tags in brackets are library labels; higher = faster piRNA-guided slicing of the target
Method in brief: as §1

[3] = auxiliary factor: none (no GTSF1)
[4] = auxiliary factor: none (no Gtsf1)
[5] = auxiliary factor: 500 nM Ephydatia muelleri Gtsf1
[6] = auxiliary factor: 500 nM mouse GTSF1

Sequence | pre-steady-state target cleavage rate [1, 3] | pre-steady-state target cleavage rate [2, 4] | pre-steady-state target cleavage rate [2, 5] | pre-steady-state target cleavage rate [1, 6]
UCCUGGUACAGCUUGCAUAGUAUUCAGUUA | 0.00285 ± 0.0032 | 0.000431 ± 0.024 | – | –
UCCUGGAUGUCGAAGCAUAGUAUUUUCUUA | 0.000553 ± 0.0097 | – | 0.000853 ± 0.0073 | –
UCCUGCUACAGCUUGCAAAGUAUUUAGAUA | 0.000874 ± 0.0083 | – | 0.00421 ± 0.0024 | –
UCCUCGUACAGCUUGCAUAGUAUUUAGAUA | 0.00213 ± 0.003 | – | 0.00437 ± 0.0019 | –
UCCUGGAUGUCGAACCACUAGUAUUUAGUUA | 0.000394 ± 0.011 | – | 0.00022 ± 0.028 | –
UCCUCGUACAGCUAGCAUAGUAUUUAGUUA | – | – | 0.0402 ± 0.01 | 0.281 ± 0.012
UCCUGCUACAGCUUGCAUAGUAUUUAGUUC [g2:g25:cont:t1C] | – | – | 0.0645 ± 0.016 | 0.317 ± 0.021
UCCUGGAACAGCUUGGAUAGUAUUUAGAAA | 0.00193 ± 0.0029 | – | 0.00373 ± 0.0019 | –
UCCUGCUUCAGCUUGCAUAGUAUUUACAAA | 0.00169 ± 0.0027 | 0.000323 ± 0.02 | – | –
UCCUGGAUGUGCUUGCAUAGUAAAUAGUUA | 0.00287 ± 0.0032 | – | 0.00273 ± 0.0051 | –
UCCUGGAUGUCGAACGUUAGUAUUUAGUCA | 0.000111 ± 0.034 | – | < 0.0001 | –
UCCUGGAUGUCGAUGCAUCAGUAUUUAGUUA | 0.000455 ± 0.012 | < 0.0001 | – | –
UCCUCCUACUGCUUGCAUAGUAUUUAGAUA | 0.00127 ± 0.004 | – | 0.0056 ± 0.0026 | –
UCCUGGAUCAGCUUGCUUAGUAUUUAGAUA | 0.00237 ± 0.0035 | – | 0.00193 ± 0.0025 | –
UCCUGGUACACCUUGGAUAGUAUUUAGUUA | 0.00369 ± 0.0047 | – | 0.0012 ± 0.0035 | –
UCCUCCUACAGCUUGCAUAGUUUUUACUUA | 0.00118 ± 0.0052 | 0.000641 ± 0.0091 | – | –
UCCUGCUACAGCUUGCAUAGUAUUUAGUUA [g2:g25:cont:t1A] | – | – | 0.0357 ± 0.011 | 0.282 ± 0.019
UCCUCCUACAGCUUGCAUAGUUUAUAGUUA | 0.00252 ± 0.0029 | – | 0.00613 ± 0.0033 | –
UCCUCCUACAGCUUCGCAUAGUAUUUAGUUA | – | – | 0.121 ± 0.032 | 0.282 ± 0.015
UCCUGGAUGUGCUUGCAUACUAUUUUGUUA | 0.000993 ± 0.0068 | – | 0.00118 ± 0.0028 | –
UCCUGGAUGUCGAAGCAUCAGUAUUUAGUUA | 0.000453 ± 0.013 | – | 0.000703 ± 0.013 | –
UCCUGGAACAGCUUGCAUACUAUUUAGAUA | 0.000806 ± 0.0075 | – | 0.00312 ± 0.0022 | –
UCCUCCUAGAGCUUGCAUACUAUUUAGUUA | 0.00176 ± 0.0035 | 0.00193 ± 0.0049 | – | –
UCCUGCUACAGCUUGCAAAGUAUUUAGAAA | 0.00086 ± 0.0062 | – | 0.00352 ± 0.002 | –
UCCUGGAACAGCUUGCAUAGCAUUUAGUUA | 0.00216 ± 0.0037 | 0.00101 ± 0.0094 | – | –
UCCUGGAUGUCGUUGCUUAGUAUUAAGUUA | 0.00176 ± 0.0049 | – | 0.000189 ± 0.014 | –
UCCUGGAACAGCUUGCAUAGUAUUAAGAAA | 0.000897 ± 0.0067 | – | 0.00313 ± 0.0019 | –

Single values from the list.
For pre-steady-state target cleavage rate [1, 3], UCCUCCUAGAGCUUGCAUACUAUUUAGUUA reads 0.00176 ± 0.0035
For pre-steady-state target cleavage rate [2, 5], UCCUGGAACAGCUUGGAUAGUAUUUAGAAA reads 0.00373 ± 0.0019
For pre-steady-state target cleavage rate [2, 5], UCCUGGAUGUCGAACGUUAGUAUUUAGUCA reads < 0.0001

(listing goes on)

Sequence | pre-steady-state target cleavage rate [1, 3] | pre-steady-state target cleavage rate [2, 4] | pre-steady-state target cleavage rate [2, 5] | pre-steady-state target cleavage rate [1, 6]
UCCUGCUUGUGCUUGCAUAGUAUUUACAAA | 0.00111 ± 0.0048 | – | 0.00208 ± 0.003 | –
UCCUGGAUCACCUUGCAUAGUAUUUAGUAA | 0.00253 ± 0.003 | – | 0.00344 ± 0.0031 | –
UCCUGCUACAGCAUGCAUACUAUUUAGUUA | 0.00325 ± 0.0036 | 0.00109 ± 0.0074 | – | –
UCCUCCUACAGCUUGCAUAGUAUUGAGUUA | 0.00254 ± 0.0029 | – | 0.00534 ± 0.002 | –
UCCUGCUACAGGUUGCAUAGUAUAUAGUUA | – | – | 0.005 ± 0.0032 | 0.305 ± 0.036
UCCUGGAUGUCGAAGGUUAGUAUUUAGUUA | – | – | 0.000258 ± 0.014 | 0.00012 ± 0.036
UCCUGGAUGUGCUUGCAUAGUAUUUGAGUUA | 0.00357 ± 0.0036 | – | 0.0118 ± 0.0069 | –
UCCUGGAUCAGCUUGCAUAGUAUUUAGUCA | – | – | 0.0102 ± 0.0044 | 0.285 ± 0.019
UCCUGGUACAGCUUGCAAUGUAUUUAGUAA | 0.00268 ± 0.0034 | – | 0.000953 ± 0.0057 | –
UCCUGGAUGUCCUUGCAUAGUAUUUAGCUUA | 0.00197 ± 0.0044 | – | 0.0051 ± 0.0028 | –
UCCUCCUACAGCUUGCAUAGUAUUUACAUA | 0.00261 ± 0.0028 | – | 0.00441 ± 0.0028 | –
UCCUGGUACAGCUUGGAUUGUAUUUAGUUA | 0.00312 ± 0.0033 | – | 0.000856 ± 0.0078 | –
UCCUGGUAGCAGCUUGCAUAGUAUUUAGUUA | – | – | 0.0746 ± 0.02 | 0.286 ± 0.019
UCCUCCUACAGCUUGCAUAGUUUUUUGUUA | 0.00251 ± 0.003 | – | 0.00441 ± 0.0026 | –
UCCUGGUACAGCUUGCAUAGUAUAUAGUAA | 0.00295 ± 0.0036 | 0.000341 ± 0.024 | – | –
UCCUCCUACAGCUUGCAUAGUAUAUACUUA | 0.0015 ± 0.0038 | – | 0.00304 ± 0.0025 | –
UCCUGGAUGUCGUUGCAUAGUAUUAACUUA | 0.000103 ± 0.061 | 0.000301 ± 0.022 | – | –
UCCUCCUACACCUUGCAUAGUAUUAAGUUA | 0.00187 ± 0.0034 | – | 0.00451 ± 0.0025 | –
UCCUCCUUCAGCUUGCAUAGUAUUUACUUA | 0.00218 ± 0.0025 | – | 0.00514 ± 0.0032 | –
UCCUGCUACAGCGUGCAUAGUAUUUAGUUA | – | 0.000759 ± 0.011 | – | 0.296 ± 0.02
UCCUGCUACAGCAAGCAUAGUAUUUAGUUA | – | – | 0.0176 ± 0.0059 | 0.325 ± 0.022
UCCUGCUACACCUUGCAUAGUAUAUAGUUA | 0.00278 ± 0.0042 | – | 0.00204 ± 0.0026 | –
UCCUGGAUGUCGAACGAUAGUAUAUAGUUA | 0.000134 ± 0.033 | – | 0.000129 ± 0.032 | –
UCCUCCUACAGCUUGCAUAGUAAUUAGAUA | 0.00145 ± 0.0041 | – | 0.00553 ± 0.0026 | –
UCCUCCUACAGCUUGCAUUGUAUUAAGUUA | 0.00162 ± 0.004 | – | 0.00681 ± 0.0032 | –
UCCUGGAUCAGCUUGCAUAGUAUUAUCUUA | 0.00188 ± 0.003 | – | 0.00165 ± 0.0028 | –
UCCUGGAUGUCCUUGCAUAAUAUUUAGUUA | 0.00224 ± 0.0033 | – | 0.00161 ± 0.0028 | –
